Test results as given in US20220096664A1, “STABILIZED FORMULATIONS CONTAINING IODINATED CONTRAST AGENTS AND CYCLODEXTRINS” (Verrow Pharmaceuticals, Inc., priority 2012, published 2022).
Like-named read-outs stand apart in the source and are kept apart here. At least one structure is not confirmed: it was looked up by name or label, or the drawing left a doubt.

Tests used:
[1] = type: physicochemical
Description: The lamps were switched on and the solutions irradiated for 18 to 24 hours for the ultraviolet (UV) lamps or 72 to 90 hours for the visible (VIS) light lamps. At the end of the selected irradiation time, the cuvettes were removed from the photolysis chamber and mixed by inversion 2-times. The caps were then removed and 40 microliter aliquots taken and diluted with 1 mL of an aqueous solution containing ˜0.9 mg/mL sodium thiosulfate. The thiosulfate solution converted any I2, IO3^−, and I3^− present in the solution tor such that total iodine species could be determined in one assay.
The diluted solutions were assayed by high pressure liquid chromatography (HPLC) using a 4.6×250 mm, C-18, 5 micron particle size, reversed phase column with detection at 280 nm for the contrast agent and 230 nm for the thiosulfate and the iodide ion (r). A mobile phase of 30:70 methanol:aqueous buffer (50 mM KH2PO4+7 mL/L 40% tetrabutyl ammonium hydroxide) at 0.75 mL/min was used for elution. Injection volume was 20 microliters. External standards were prepared containing each contrast agent, potassium iodide, and sodium thiosulfate solution and analyzed along with the irradiated samples. The results were reported as weight percentage iodide formed (mg iodide/mg contrast agent times 100).
Aqueous solutions were prepared containing 50 mM iodinated contrast agent, 10 mM tromethamine HCl buffer (TRIS), with and without sulfobutylether beta-cyclodextrin with an average degree of substitution-7 (SBE7-β-CD), or 2-hydroxypropyl beta-cyclodextrin with an average degree of substitution of ˜6.3 (HP6.3-β-CD) or ˜4.3 (HP4.3-β-CD). The iohexol solution was prepared by dissolving solid iohexol powder while the other solutions were prepared by diluting commercial formulated products and adding sufficient TRIS buffer to reach 10 mM. The pH of the solutions was adjusted to 7.4 with 0.1N hydrochloric acid.
Aliquots of the solutions were irradiated with visible light for 72 hours (0.52 million lux hours). Other aliquots were autoclaved for 20 minutes at 121° C., cooled to room temperature and then irradiated with ultraviolet light for 18 hours (119 watt hours/m2). The solutions were then processed, analyzed and reported as in Example 2, except that the chromatographic peaks of the contrast agents were evaluated at 300 nm for both samples and standards.
Aqueous solutions were prepared containing 50 mM iohexol, 0, 2.5, 5, 7.5, or 10 mM tromethamine HCl (TRIS) buffer, with and without 2.5 mM sulfobutylether beta-cyclodextrin with an average degree of substitution-7 (SBE7-β-CD). The pH of the solutions was adjusted to 7.4 with 0.1N hydrochloric acid and the solutions were transferred to glass vials. The vials were stoppered, crimp-capped and autoclaved for 20 minutes at 121° C. The pH of the autoclaved solutions was measured after the solutions were at room temperature.
Aliquots of the autoclaved solutions were irradiated with visible light for 72 hours (0.52 million lux hours) and other aliquots irradiated with ultraviolet light for 18 hours (119 watt hours/m2). The solutions were then processed, analyzed and reported as in Example 2, except that the chromatographic peak of the iohexol was evaluated at 300 nm for both samples and standards.
Aqueous formulations were prepared containing iodinated contrast agents at concentrations used commercially in medical procedures. Sulfobutylether-cyclodextrin, sodium salt, average degree of substitution ˜7 (SBE7CD) was added at varying agent:CD mole ratios. The formulations were placed in glass vials, sealed with rubber stoppers and aluminum crimps, and autoclaved at 121° C. for 20 minutes. […]

[2] = pH of solution after autoclaving; type: physicochemical; details: 50 mM iohexol; for pH post autoclave: pH initial 7.4; for drop of pH after autoclaving: no buffer agent

For `CC(=O)N(CC(O)CO)c1c(I)c(C(=O)NCC(O)CO)c(I)c(C(=O)NCC(O)CO)c1I` (stereo not shown) [Iohexol, iohexol], the “Iodide Formed, UV” value ([1]; Iohexol 155 mg I/mL, pH 7.4, agent:SBE7CD 1:0.02, autoclaved then UV 24 h) was 0.121 wt %, the “Iodide Formed, VIS” value ([1]; Iohexol 155 mg I/mL, pH 7.4, agent:SBE7CD 1:0.02, autoclaved then VIS 72 h) was 0.0432 wt % and the “Iodide Formed, UV” value ([1]; Iohexol 155 mg I/mL, pH 7.4, agent:SBE7CD 1:0.05, autoclaved then UV 24 h) was 0.111 wt %. The “Iodide Formed, VIS” value ([1]; Iohexol 155 mg I/mL, pH 7.4, agent:SBE7CD 1:0.05, autoclaved then VIS 72 h) was 0.0417 wt %, the “Iodide Formed, UV” value ([1]; Iohexol 155 mg I/mL, pH 7.4, agent:SBE7CD 1:0.10, autoclaved then UV 24 h) was 0.0979 wt % and the “Iodide Formed, VIS” value ([1]; Iohexol 155 mg I/mL, pH 7.4, agent:SBE7CD 1:0.10, autoclaved then VIS 72 h) was 0.0362 wt %. The “Iodide Formed, UV” value ([1]; Iohexol 155 mg I/mL, pH 7.4, no SCD (1:0), autoclaved then UV 24 h) was 0.153 wt %, the “Iodide Formed, VIS” value ([1]; Iohexol 155 mg I/mL, pH 7.4, no SCD (1:0), autoclaved then VIS 72 h) was 0.0488 wt % and the “Iodide Formed, VIS” value ([1]; Iohexol 180 mg I/mL, pH 7.4, agent:SBE7CD 1:0.05, autoclaved then VIS 72 h) was 0.0476 wt %. For the same compound, the “Iodide Formed, UV” value ([1]; Iohexol 180 mg I/mL, pH 7.4, no SCD (1:0), autoclaved then UV 24 h) was 0.156 wt %, the “Iodide Formed, VIS” value ([1]; Iohexol 180 mg I/mL, pH 7.4, no SCD (1:0), autoclaved then VIS 72 h) was 0.0503 wt % and the “Iodide Formed, UV” value ([1]; Iohexol 240 mg I/mL, pH 7.4, agent:SBE7CD 1:0.05, autoclaved then UV 24 h) was 0.0928 wt %. For the same compound, the “Iodide Formed, VIS” value ([1]; Iohexol 240 mg I/mL, pH 7.4, agent:SBE7CD 1:0.05, autoclaved then VIS 72 h) was 0.0491 wt %, the “Iodide Formed, UV” value ([1]; Iohexol 240 mg I/mL, pH 7.4, no SCD (1:0), autoclaved then UV 24 h) was 0.118 wt % and the “Iodide Formed, VIS” value ([1]; Iohexol 240 mg I/mL, pH 7.4, no SCD (1:0), autoclaved then VIS 72 h) was 0.0536 wt %. For the same compound, the “Iodide Formed, UV” value ([1]; Iohexol 300 mg I/mL, pH 7.4, agent:SBE7CD 1:0.05, autoclaved then UV 24 h) was 0.0717 wt %, the “Iodide Formed, VIS” value ([1]; Iohexol 300 mg I/mL, pH 7.4, agent:SBE7CD 1:0.05, autoclaved then VIS 72 h) was 0.0385 wt % and the “Iodide Formed, UV” value ([1]; Iohexol 300 mg I/mL, pH 7.4, no SCD (1:0), autoclaved then UV 24 h) was 0.100 wt %. For the same compound, the “Iodide Formed, VIS” value ([1]; Iohexol 300 mg I/mL, pH 7.4, no SCD (1:0), autoclaved then VIS 72 h) was 0.0417 wt %, the “Iodide Formed, UV” value ([1]; Iohexol 350 mg I/mL, pH 7.4, agent:SBE7CD 1:0.05, autoclaved then UV 24 h) was 0.0564 wt % and the “Iodide Formed, VIS” value ([1]; Iohexol 350 mg I/mL, pH 7.4, agent:SBE7CD 1:0.05, autoclaved then VIS 72 h) was 0.0265 wt %. For the same compound, the “Iodide Formed, UV” value ([1]; Iohexol 350 mg I/mL, pH 7.4, no SCD (1:0), autoclaved then UV 24 h) was 0.0965 wt %, the “Iodide Formed, VIS” value ([1]; Iohexol 350 mg I/mL, pH 7.4, no SCD (1:0), autoclaved then VIS 72 h) was 0.0391 wt % and the “Iodide Formed, UV” value ([1]; Iohexol 400 mg I/mL, pH 7.4, agent:SBE7CD 1:0.02, autoclaved then UV 24 h) was 0.106 wt %. The “Iodide Formed, VIS” value ([1]; Iohexol 400 mg I/mL, pH 7.4, agent:SBE7CD 1:0.02, autoclaved then VIS 72 h) was 0.0215 wt %, the “Iodide Formed, UV” value ([1]; Iohexol 400 mg I/mL, pH 7.4, agent:SBE7CD 1:0.05, autoclaved then UV 24 h) was 0.0958 wt % and the “Iodide Formed, VIS” value ([1]; Iohexol 400 mg I/mL, pH 7.4, agent:SBE7CD 1:0.05, autoclaved then VIS 72 h) was 0.0164 wt %. The “Iodide Formed, UV” value ([1]; Iohexol 400 mg I/mL, pH 7.4, agent:SBE7CD 1:0.10, autoclaved then UV 24 h) was 0.0542 wt %, the “Iodide Formed, VIS” value ([1]; Iohexol 400 mg I/mL, pH 7.4, agent:SBE7CD 1:0.10, autoclaved then VIS 72 h) was 0.0065 wt % and the “Iodide Formed, UV” value ([1]; Iohexol 400 mg I/mL, pH 7.4, no SCD (1:0), autoclaved then UV 24 h) was 0.142 wt %. The “Iodide Formed, VIS” value ([1]; Iohexol 400 mg I/mL, pH 7.4, no SCD (1:0), autoclaved then VIS 72 h) was 0.0300 wt %, the pH post autoclave ([2]; TRIS 0 mM, SBE7-β-CD 0 mM) was 6.4 and the pH post autoclave ([2]; TRIS 0 mM, SBE7-β-CD 2.5 mM) was 6.6. It also gave a pH post autoclave ([2]; TRIS 2.5 mM, SBE7-β-CD 0 mM) of 7.3, a pH post autoclave ([2]; TRIS 2.5 mM, SBE7-β-CD 2.5 mM) of 7.5 and a pH post autoclave ([2]; TRIS 5 mM, SBE7-β-CD 0 mM) of 7.2. The pH post autoclave ([2]; TRIS 5 mM, SBE7-β-CD 2.5 mM) was 7.5, the pH post autoclave ([2]; TRIS 7.5 mM, SBE7-β-CD 0 mM) was 7.2 and the pH post autoclave ([2]; TRIS 7.5 mM, SBE7-β-CD 2.5 mM) was 7.4. For the same compound, the pH post autoclave ([2]; TRIS 10 mM, SBE7-β-CD 0 mM) was 7.3, the pH post autoclave ([2]; TRIS 10 mM, SBE7-β-CD 2.5 mM) was 7.4 and the “drop of pH after autoclaving” value ([2]; absence of the SCD) was “a full pH unit”. For the same compound, the “drop of pH after autoclaving” value ([2]; presence of the SCD (2.5 mM SBE7-β-CD)) was 0.8 units.
